# Results from the supplement of paper PMC6411743.
# The chains behind the UniProt entries cited, without tags or fusion partners. Where a name states a change or a piece, a line headed by the entry shows the natural chain unless it says otherwise.
# UniProt Q96AX2: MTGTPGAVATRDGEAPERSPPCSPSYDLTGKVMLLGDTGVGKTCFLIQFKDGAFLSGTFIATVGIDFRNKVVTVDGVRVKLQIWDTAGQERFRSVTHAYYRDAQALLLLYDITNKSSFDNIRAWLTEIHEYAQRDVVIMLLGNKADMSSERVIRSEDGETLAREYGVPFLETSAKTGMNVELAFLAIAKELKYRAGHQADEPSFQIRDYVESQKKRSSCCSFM
# UniProt Q8WXX5: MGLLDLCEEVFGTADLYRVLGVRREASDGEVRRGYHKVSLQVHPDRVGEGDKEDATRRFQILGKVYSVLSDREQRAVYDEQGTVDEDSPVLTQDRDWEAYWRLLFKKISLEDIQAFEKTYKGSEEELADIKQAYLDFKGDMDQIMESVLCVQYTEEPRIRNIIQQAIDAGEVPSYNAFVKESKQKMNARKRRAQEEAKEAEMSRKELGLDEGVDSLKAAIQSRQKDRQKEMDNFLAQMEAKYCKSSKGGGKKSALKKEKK
# UniProt Q92674: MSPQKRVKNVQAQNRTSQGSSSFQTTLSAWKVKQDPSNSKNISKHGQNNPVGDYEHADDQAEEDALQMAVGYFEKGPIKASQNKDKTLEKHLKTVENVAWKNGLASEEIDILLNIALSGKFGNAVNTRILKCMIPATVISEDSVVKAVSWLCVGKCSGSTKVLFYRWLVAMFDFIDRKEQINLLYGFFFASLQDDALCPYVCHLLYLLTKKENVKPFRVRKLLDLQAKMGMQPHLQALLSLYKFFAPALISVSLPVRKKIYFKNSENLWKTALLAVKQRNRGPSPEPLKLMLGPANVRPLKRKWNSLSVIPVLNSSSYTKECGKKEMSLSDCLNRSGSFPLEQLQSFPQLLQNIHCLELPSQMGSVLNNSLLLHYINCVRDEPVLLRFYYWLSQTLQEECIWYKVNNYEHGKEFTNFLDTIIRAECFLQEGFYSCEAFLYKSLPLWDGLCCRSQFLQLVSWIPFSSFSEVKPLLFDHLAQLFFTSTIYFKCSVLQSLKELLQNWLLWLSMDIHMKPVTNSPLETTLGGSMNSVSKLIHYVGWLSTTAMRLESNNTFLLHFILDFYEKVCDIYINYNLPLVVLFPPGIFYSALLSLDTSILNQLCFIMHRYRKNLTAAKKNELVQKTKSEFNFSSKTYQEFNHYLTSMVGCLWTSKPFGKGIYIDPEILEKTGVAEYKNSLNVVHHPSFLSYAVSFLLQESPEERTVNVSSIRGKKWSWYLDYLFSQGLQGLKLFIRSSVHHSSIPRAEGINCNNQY
# UniProt Q8WYP5: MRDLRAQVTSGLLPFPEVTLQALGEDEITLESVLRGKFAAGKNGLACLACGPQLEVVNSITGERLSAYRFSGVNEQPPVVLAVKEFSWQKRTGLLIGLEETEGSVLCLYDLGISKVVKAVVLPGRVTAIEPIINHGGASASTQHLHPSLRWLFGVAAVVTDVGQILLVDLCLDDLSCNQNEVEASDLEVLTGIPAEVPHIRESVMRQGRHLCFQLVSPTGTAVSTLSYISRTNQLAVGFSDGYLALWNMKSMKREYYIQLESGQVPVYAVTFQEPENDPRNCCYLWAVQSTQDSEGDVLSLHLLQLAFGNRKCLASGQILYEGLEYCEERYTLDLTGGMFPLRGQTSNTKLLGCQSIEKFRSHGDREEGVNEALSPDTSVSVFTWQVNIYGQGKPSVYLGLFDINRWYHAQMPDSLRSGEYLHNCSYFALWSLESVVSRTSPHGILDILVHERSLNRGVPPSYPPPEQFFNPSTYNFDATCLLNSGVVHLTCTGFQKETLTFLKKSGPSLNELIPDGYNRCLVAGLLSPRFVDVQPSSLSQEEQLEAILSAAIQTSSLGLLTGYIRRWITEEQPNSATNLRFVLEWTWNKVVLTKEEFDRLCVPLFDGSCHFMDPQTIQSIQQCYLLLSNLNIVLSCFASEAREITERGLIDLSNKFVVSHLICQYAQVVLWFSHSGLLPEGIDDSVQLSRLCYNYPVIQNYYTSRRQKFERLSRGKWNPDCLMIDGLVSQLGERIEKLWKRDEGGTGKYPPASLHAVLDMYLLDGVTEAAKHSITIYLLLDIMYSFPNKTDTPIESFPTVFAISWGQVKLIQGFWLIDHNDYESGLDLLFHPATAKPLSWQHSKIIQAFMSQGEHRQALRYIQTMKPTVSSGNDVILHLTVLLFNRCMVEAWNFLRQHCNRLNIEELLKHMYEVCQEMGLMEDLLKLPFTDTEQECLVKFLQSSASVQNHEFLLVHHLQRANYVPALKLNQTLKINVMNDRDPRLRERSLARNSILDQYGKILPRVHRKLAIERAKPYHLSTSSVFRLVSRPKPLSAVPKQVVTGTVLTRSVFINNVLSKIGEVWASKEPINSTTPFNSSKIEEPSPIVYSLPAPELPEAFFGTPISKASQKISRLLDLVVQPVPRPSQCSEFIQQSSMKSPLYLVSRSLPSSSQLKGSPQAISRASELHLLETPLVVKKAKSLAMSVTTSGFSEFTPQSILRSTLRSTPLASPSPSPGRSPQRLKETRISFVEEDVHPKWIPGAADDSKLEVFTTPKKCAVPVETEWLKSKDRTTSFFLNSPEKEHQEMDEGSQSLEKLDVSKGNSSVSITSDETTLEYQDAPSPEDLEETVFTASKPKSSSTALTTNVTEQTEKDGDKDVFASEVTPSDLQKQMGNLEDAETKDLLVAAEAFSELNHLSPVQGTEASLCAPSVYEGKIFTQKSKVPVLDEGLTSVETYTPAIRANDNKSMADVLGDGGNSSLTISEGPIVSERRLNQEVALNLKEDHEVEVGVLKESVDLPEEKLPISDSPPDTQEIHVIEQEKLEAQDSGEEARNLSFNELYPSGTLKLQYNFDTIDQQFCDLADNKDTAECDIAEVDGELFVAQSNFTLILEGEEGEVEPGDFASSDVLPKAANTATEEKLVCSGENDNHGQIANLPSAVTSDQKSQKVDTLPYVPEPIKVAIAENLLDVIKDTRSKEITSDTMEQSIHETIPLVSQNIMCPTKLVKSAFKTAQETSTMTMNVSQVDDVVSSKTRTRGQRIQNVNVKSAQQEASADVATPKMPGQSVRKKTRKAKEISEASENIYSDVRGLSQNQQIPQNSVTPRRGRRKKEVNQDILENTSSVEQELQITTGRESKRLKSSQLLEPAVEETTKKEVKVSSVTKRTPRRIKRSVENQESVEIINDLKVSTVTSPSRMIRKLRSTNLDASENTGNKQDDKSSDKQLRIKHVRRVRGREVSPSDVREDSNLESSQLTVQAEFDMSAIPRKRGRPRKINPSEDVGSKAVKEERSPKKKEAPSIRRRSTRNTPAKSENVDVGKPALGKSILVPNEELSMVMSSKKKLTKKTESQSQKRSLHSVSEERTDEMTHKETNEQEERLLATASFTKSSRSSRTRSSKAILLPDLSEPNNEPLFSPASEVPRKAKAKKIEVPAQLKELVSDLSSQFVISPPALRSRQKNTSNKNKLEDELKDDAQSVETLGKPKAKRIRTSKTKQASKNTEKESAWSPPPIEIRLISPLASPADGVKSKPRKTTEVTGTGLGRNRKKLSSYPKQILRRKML
# UniProt Q8TED0: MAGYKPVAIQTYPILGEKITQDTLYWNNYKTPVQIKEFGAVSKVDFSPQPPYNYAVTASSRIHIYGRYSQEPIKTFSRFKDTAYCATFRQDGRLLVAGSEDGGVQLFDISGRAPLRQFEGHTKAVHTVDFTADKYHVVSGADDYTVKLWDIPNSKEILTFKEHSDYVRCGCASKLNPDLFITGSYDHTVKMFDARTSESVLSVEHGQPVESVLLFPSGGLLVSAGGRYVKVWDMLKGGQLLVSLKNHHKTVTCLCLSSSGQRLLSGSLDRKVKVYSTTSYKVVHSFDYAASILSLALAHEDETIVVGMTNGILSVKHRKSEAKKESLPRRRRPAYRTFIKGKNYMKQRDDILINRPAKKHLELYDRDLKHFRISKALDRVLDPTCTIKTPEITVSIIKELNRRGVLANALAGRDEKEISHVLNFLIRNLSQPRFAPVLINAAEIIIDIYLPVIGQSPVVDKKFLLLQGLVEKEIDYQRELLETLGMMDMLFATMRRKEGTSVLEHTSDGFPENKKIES
# UniProt Q92626: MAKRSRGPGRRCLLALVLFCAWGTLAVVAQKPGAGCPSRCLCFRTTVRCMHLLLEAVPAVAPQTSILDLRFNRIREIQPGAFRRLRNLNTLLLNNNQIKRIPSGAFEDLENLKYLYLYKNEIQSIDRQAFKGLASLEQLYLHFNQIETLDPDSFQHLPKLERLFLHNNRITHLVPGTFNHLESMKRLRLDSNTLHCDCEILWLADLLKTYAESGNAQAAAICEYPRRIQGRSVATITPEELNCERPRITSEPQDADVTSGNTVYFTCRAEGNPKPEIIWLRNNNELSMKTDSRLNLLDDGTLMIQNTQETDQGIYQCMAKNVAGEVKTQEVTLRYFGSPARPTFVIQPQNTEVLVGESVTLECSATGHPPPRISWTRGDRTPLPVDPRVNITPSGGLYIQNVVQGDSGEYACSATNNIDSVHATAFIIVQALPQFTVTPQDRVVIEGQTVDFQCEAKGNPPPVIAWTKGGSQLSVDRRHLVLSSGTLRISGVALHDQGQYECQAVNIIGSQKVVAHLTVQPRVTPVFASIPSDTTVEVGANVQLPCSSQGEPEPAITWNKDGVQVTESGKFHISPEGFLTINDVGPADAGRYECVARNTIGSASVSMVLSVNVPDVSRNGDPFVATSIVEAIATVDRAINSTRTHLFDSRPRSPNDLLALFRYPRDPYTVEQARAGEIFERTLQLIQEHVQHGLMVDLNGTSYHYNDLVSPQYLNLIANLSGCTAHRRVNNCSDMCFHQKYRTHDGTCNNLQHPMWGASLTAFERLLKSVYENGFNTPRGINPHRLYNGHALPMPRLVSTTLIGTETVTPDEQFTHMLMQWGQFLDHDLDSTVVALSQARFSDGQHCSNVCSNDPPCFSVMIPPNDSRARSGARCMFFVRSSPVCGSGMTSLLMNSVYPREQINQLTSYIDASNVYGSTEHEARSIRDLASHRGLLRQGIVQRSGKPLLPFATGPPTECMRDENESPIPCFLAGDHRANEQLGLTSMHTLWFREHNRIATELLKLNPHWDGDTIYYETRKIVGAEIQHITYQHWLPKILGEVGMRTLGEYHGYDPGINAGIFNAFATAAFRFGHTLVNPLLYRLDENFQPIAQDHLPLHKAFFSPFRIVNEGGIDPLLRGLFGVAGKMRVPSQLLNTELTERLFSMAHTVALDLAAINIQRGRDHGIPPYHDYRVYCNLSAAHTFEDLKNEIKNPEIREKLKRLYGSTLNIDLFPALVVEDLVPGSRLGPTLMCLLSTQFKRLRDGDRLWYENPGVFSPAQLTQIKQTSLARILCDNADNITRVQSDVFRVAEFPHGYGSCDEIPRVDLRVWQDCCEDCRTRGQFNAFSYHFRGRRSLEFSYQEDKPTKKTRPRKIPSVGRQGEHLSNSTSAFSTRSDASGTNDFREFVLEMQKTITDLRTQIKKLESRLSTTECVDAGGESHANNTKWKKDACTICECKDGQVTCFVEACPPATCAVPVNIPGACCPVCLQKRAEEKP
# UniProt Q8TEQ8: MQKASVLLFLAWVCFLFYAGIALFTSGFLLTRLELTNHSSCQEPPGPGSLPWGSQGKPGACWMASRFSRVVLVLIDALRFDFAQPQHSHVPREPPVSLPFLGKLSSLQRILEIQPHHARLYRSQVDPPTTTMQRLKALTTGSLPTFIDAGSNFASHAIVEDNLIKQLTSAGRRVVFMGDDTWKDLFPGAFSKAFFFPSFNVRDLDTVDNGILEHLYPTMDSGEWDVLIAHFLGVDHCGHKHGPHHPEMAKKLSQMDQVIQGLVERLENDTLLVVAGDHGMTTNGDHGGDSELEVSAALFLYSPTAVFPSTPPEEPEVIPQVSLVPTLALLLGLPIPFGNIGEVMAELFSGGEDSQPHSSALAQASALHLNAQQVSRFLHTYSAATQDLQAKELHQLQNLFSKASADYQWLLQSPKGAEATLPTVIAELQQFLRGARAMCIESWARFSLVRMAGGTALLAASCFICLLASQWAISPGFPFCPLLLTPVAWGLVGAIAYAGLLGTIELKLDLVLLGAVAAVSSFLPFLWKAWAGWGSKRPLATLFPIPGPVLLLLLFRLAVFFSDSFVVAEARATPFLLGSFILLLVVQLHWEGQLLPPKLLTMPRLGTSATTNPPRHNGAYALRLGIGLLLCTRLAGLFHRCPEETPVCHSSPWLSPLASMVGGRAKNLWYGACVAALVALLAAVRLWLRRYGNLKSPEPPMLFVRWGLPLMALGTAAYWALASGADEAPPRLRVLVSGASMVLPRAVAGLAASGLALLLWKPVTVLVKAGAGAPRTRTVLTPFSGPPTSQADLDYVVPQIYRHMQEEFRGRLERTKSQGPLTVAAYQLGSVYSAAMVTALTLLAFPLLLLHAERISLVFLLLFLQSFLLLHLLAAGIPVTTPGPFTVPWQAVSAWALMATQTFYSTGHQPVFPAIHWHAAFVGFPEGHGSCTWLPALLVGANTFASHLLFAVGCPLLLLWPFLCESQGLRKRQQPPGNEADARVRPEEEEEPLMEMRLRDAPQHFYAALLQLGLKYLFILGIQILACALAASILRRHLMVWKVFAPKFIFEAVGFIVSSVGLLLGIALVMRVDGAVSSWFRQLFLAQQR
# ± gives the standard deviation of the averaged measurements. The list shows a part of the results, in another mix than the full data. Most entries show no effect beyond the scatter of the controls.
# Compound: Nc1ncnc2c1ncn2[C@@H]1O[C@H](COP(=O)(O)OP(=O)(O)OP(=O)(O)O)[C@@H](O)[C@H]1O [adenosine triphosphate]
# Assay: NP40-soluble protein abundance relative to vehicle (solubility fold change) (ratio); higher = more soluble protein in presence of ATP
# Outline: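 Data come from three independent experiments in which Dounce-homogenised Jurkat crude lysate was treated at eight concentrations from 0.1 to 10 mM. Treatment ran 10 min at room temperature and then 3 min at 37 °C, after which 0.8% NP40 and benzonase were added for 60 min at 4 °C before ultracentrifugation. The supernatant underwent TMT labelling and LC-MS/MS, and vsn-normalised intensities were expressed as fold change against the detergent-processed vehicle in each replicate.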
Target,NP40-soluble protein abundance (concentration: 0.1mM),NP40-soluble protein abundance (concentration: 0.5mM),NP40-soluble protein abundance (concentration: 1mM),NP40-soluble protein abundance (concentration: 2mM),NP40-soluble protein abundance (concentration: 4mM),NP40-soluble protein abundance (concentration: 6mM),NP40-soluble protein abundance (concentration: 8mM),NP40-soluble protein abundance (concentration: 10mM)
UniProt Q8WX93 and related entries,1.02 ± 0.056,1.02 ± 0.034,0.978 ± 0.024,0.966 ± 0.046,1.01 ± 0.026,0.97 ± 0.042,0.971 ± 0.044,0.986 ± 0.036
UniProt Q96AX2 and related entries,1.06 ± 0.1,1.04 ± 0.11,–,–,–,–,–,–
DNAJC9 (UniProt Q8WXX5),0.962 ± 0.01,0.977 ± 0.018,1.04 ± 0.024,1.13 ± 0.012,1.34 ± 0.04,1.55 ± 0.057,1.73 ± 0.12,1.76 ± 0.1
UniProt Q96AT9 and related entries,1.03 ± 0.074,1 ± 0.068,1.06 ± 0.092,1.07 ± 0.047,1.06 ± 0.075,1.05 ± 0.073,0.991 ± 0.064,0.993 ± 0.048
PIEZO1 (UniProt Q92508),1.02 ± 0.16,0.995 ± 0.059,1.1 ± 0.12,1.09 ± 0.13,1.14 ± 0.24,1.14 ± 0.12,1.09 ± 0.12,1.09 ± 0.012
UniProt Q8TDY2 and related entries,1.03 ± 0.039,1.05 ± 0.082,1.04 ± 0.056,1.02 ± 0.044,1.03 ± 0.038,1.04 ± 0.042,1.01 ± 0.041,1.04 ± 0.038
UniProt Q92804 and related entries,0.946 ± 0.11,0.969 ± 0.1,1.05 ± 0.14,1.07 ± 0.15,1.24 ± 0.2,1.5 ± 0.29,1.59 ± 0.21,2.05 ± 0.3
UniProt Q92674,0.915 ± 0.17,1.02 ± 0.17,–,–,–,–,–,–
UniProt Q8WYP5 and related entries,1.04 ± 0.026,1.08 ± 0.027,1.13 ± 0.037,1.16 ± 0.048,1.28 ± 0.079,1.38 ± 0.096,1.42 ± 0.12,1.53 ± 0.13
UniProt Q8TED0 and related entries,1.08 ± 0.055,1.13 ± 0.063,1.18 ± 0.18,1.22 ± 0.11,1.32 ± 0.18,1.43 ± 0.28,1.5 ± 0.24,1.77 ± 0.41
TMEM263 (UniProt Q8WUH6),0.919 ± 0.073,0.916 ± 0.095,–,–,–,–,–,–
NUP210 (UniProt Q8TEM1),1.01 ± 0.037,1.04 ± 0.024,–,–,–,–,–,–
PXDN (UniProt Q92626),1.01 ± 0.038,1.01 ± 0.077,1.06 ± 0.1,1.03 ± 0.067,1.09 ± 0.06,1.05 ± 0.049,1.04 ± 0.074,1.06 ± 0.1
PIGO (UniProt Q8TEQ8),1.05 ± 0.056,1.01 ± 0.032,0.991 ± 0.035,1 ± 0.062,0.996 ± 0.02,0.979 ± 0.073,0.983 ± 0.051,1.01 ± 0.039

# Part of the list above, with tabs.
Target	NP40-soluble protein abundance (concentration: 0.1mM)	NP40-soluble protein abundance (concentration: 0.5mM)	NP40-soluble protein abundance (concentration: 1mM)	NP40-soluble protein abundance (concentration: 2mM)	NP40-soluble protein abundance (concentration: 4mM)	NP40-soluble protein abundance (concentration: 6mM)	NP40-soluble protein abundance (concentration: 8mM)	NP40-soluble protein abundance (concentration: 10mM)
UniProt Q8TED0 and related entries	1.08 ± 0.055	1.13 ± 0.063	1.18 ± 0.18	1.22 ± 0.11	1.32 ± 0.18	1.43 ± 0.28	1.5 ± 0.24	1.77 ± 0.41
TMEM263 (UniProt Q8WUH6)	0.919 ± 0.073	0.916 ± 0.095	–	–	–	–	–	–
NUP210 (UniProt Q8TEM1)	1.01 ± 0.037	1.04 ± 0.024	–	–	–	–	–	–
